From patent US10357036B2, “Compounds for controlling arthropods” (priority 2015, dated 2019)
Some of these results come from one statement about several compounds together.

Experiments:
Format in all cases: in vivo
Conditions in all cases: 1280 g/ha, 3 weeks
[1] = tested on: Matricaria inodorae (MATIN); assay: Herbicidal activity, pre-emergence
[2] = tested on: Amaranthus retroflexus (AMARE); assay: Herbicidal activity, post-emergence
Viola tricolor (VOTR) = assay: Herbicidal activity, post-emergence
Stellaria media (STEME) = assay: Herbicidal activity, pre-emergence

SMILES	herbicidal efficacy [1] [%]	herbicidal efficacy [2]	herbicidal efficacy (Viola tricolor (VOTR))	herbicidal efficacy (Stellaria media (STEME)) [%]
CCC(=O)NCc1cccc(-c2cnn(-c3c(C)cc(C(F)(C(F)(F)F)C(F)(F)F)cc3C)c2)c1 [Ia-28]	≥ 80	at least 100%	at least 100%	
CC(=O)NCc1cccc(-c2cnn(-c3c(Cl)cc(C(F)(C(F)(F)F)C(F)(F)F)cc3[S+](C)[O-])c2)c1 (centres unmarked) [Ia-17]	≥ 80	at least 100%	at least 100%	≥ 80
CC(=O)NCc1cccc(-c2cnn(-c3c(C)cc(C(F)(C(F)(F)F)C(F)(F)F)cc3C)c2)c1 [Ia-37]	≥ 80	at least 100%	at least 100%	≥ 80
